The experiment deals with Msm RNAP-FLAG (M. smegmatis (endogenous in mc^2 155) | Mycobacterium smegmatis) (UniProt A0QSL8+P60281+A0QS66+A0QWT1). Nature of the experiment: co-IP; RNAP-FLAG captured from M. smegmatis lysate on anti-FLAG M2 agarose; exponential phase and 24, 48, 72 h (stationary); relative levels of HelD and σ^A on the RNAP core.

Results are given in words; binding and its absence hold for the method and conditions named. Binding seen in cells or lysates may run through a third protein. Some entries that bind do so weakly or less than the wild type. Where a sequence is shown, tags or fusion partners need not be part of it.

B1: Msm HelD (endogenous, untagged) (protein, UniProt A0QUE0 1-736)
chain: MSGRDYEDELQSERDYVAGLYARLDAERAQSQRRYAAALREHGGTAVERDAEVRALAKDIARLNVADNGLCFGRLDTLDDARLYIGRLGIFDRDNDFEPLLLDWRAPMARPFYVATAANPENMRRRRQFHTLGRKVVDFTDEILGRPTGAEHDATNDAALLAAVNAPRGEGMRDIVATIQAEQDQVIRLDHTGVLVIEGGPGTGKTVVALHRVAYLLYTYRKQMERHGVLVVGPTPAFLDHIGRVLPSLGESDAVFMTPGDFVPGLHVTAEDTPEAAEVKGSLKILDVLKAAVADRQELPSEPIPIDLSDVTMRIDAETAKWARDEARKTGLPHNEARAEFVDVVTYVVTERAVARIGRGWLTRDDKHAWEKMRADVVGELEDHEQFNAALDALWPILTPEDVLAQLYTSHERLRAAGAPECLWRADGEAWTVSDVPLLDELVDLLGRNKAADEAAERERREEEAYAAGVLDLMVDREDLMDDEDHLLAQDLIDAEELADRFKEQDNRELSERAAADREWTYGHVVVDEAQELSEMDWRLLMRRCPRRSFTIVGDLAQRRSPAGARSWGAMLDSYVPGRWVYKSLSVNYRTPAEIMAVAAAVLAEFAPDATPPDSVRACGVAPWARQVTDDDIASAIAEFVSEEAGREGTSVVIGPPDVPGTVPPSETKGLEFDAVLVVEPERILADGPRGAAELYVALTRATQRLGVLYRDALPQALAGLAEGDAAATVEQRTSA
In the case of B1, the binding entry is on record as “binds”.

The values above are taken from publication PMC11464796.
